Data on two molecules can be found in paper PMC4814551.

These are yes or no findings as the source states them, for the method shown. For some assays here: Binding can be weak; no strength is given. For some assays here: In cells and extracts the contact can be indirect. For some assays here: Sequences can lack the tags named with a protein.

For test [1], the target named is TaSnRK2.10 (GAL4BD fusion) (Triticum aestivum (wheat)). Kind of test: two-hybrid; MatchMaker GAL4 two-hybrid system-3, yeast AH109; GAL4BD:TaSnRK2s (pGBKT7) with GAL4AD:TaABI1 (pGADT7); SD media -LW, -LWH + 10 mM 3-AT, -LWHA + 30 mM 3-AT.
Test [2] concerns the target TaSnRK2.8 (GAL4BD fusion) (Triticum aestivum (wheat)). The description is as above.
The target of test [3] is TaSnRK2.9 (GAL4BD fusion) (Triticum aestivum (wheat)). Described as above.
The target in test [4] is TaSnRK2.1-YFP^N (TaSnRK2:HA fusion) (Triticum aestivum (wheat)). Kind of test: split reporter; BiFC with split YFP in epidermal cells of tobacco leaves, Agrobacterium infiltration, confocal microscopy 4 days after infiltration.
Test [5] concerns the target TaSnRK2.10-YFP^N (TaSnRK2:HA fusion) (Triticum aestivum (wheat)). The description is as above.
Test [6] addresses TaSnRK2.2-YFP^N (TaSnRK2:HA fusion) (Triticum aestivum (wheat)). Described as above.
In test [7] the target is TaSnRK2.3-YFP^N (TaSnRK2:HA fusion) (Triticum aestivum (wheat)). The test is described as above.
The target in test [8] is TaSnRK2.4-YFP^N (TaSnRK2:HA fusion) (Triticum aestivum (wheat)). The test is described as above.
Test [9] deals with TaSnRK2.5-YFP^N (TaSnRK2:HA fusion) (Triticum aestivum (wheat)). Described as above.
The target in test [10] is TaSnRK2.6-YFP^N (TaSnRK2:HA fusion) (Triticum aestivum (wheat)). The description is as above.
Test [11] addresses TaSnRK2.7-YFP^N (TaSnRK2:HA fusion) (Triticum aestivum (wheat)). The description is as above.
Test [12] deals with TaSnRK2.8-YFP^N (TaSnRK2:HA fusion) (Triticum aestivum (wheat)). The test is described as above.
For test [13], the target named is TaSnRK2.9-YFP^N (TaSnRK2:HA fusion) (Triticum aestivum (wheat)). The description is as above.
The target of test [14] is TaSnRK2.1-YFP^N (TaSnRK2:HA fusion) (Triticum aestivum (wheat)). Kind of test: co-IP; extracts of transfected tobacco leaves in PBS with 0.05% Triton X-100, 1 mM EDTA, protease inhibitors; HA-tagged proteins precipitated on anti-HA micro MACS beads, blot with anti-myc (the legend of Figure 4C says the reverse).
The target in test [15] is TaSnRK2.10-YFP^N (TaSnRK2:HA fusion) (Triticum aestivum (wheat)). The description is as above.
The target in test [16] is TaSnRK2.2-YFP^N (TaSnRK2:HA fusion) (Triticum aestivum (wheat)). The test is described as above.
Test [17] deals with TaSnRK2.3-YFP^N (TaSnRK2:HA fusion) (Triticum aestivum (wheat)). Described as above.
In test [18] the target is TaSnRK2.4-YFP^N (TaSnRK2:HA fusion) (Triticum aestivum (wheat)). Described as above.
Test [19] has as its target TaSnRK2.5-YFP^N (TaSnRK2:HA fusion) (Triticum aestivum (wheat)). The test is described as above.
The target in test [20] is TaSnRK2.6-YFP^N (TaSnRK2:HA fusion) (Triticum aestivum (wheat)). Described as above.
The target in test [21] is TaSnRK2.7-YFP^N (TaSnRK2:HA fusion) (Triticum aestivum (wheat)). Described as above.
Test [22] has as its target TaSnRK2.8-YFP^N (TaSnRK2:HA fusion) (Triticum aestivum (wheat)). The test is described as above.
In test [23] the target is TaSnRK2.9-YFP^N (TaSnRK2:HA fusion) (Triticum aestivum (wheat)). Described as above.

B1: TaABI1 (GAL4AD:TaABI1) (protein, UniProt A5A6P8 1-479)
chain: MEDVAVAALATAPTPVFSPATAGLTLIAAAAAEPIAAVVAGAMEGVPVTFSVPPVRTTTDDGLPAATGGEGGEASAAGSPCSVTSDCSSVASADFEGVGLGFFGAGVEGGAVVFEDSAASAATVEAEARVAAGGRSVFAVECVPLWGFTSICGRRPEMEDAVIAVPRFFGLPLWMLTGNNMVDGLDPISFRLPAHFFGVYDGHGGAQVADYCRDRLHAALVEELSRIEGSVSGANLGAVEFKKQWEKAFVDCFSRVDDEIAGKVTSGGGGNVGTSSVTAMGMVDPVAPETVGSTAVVAVICSSHIIVSNCGDSRAVLCRGKQPVPLSVDHKPNREDEYARIEAEGGKVIQWNGYRVFGVLAMSRSIGDRYLKPWIIPVPEVTIVPRAKDDECLILASDGLWDVLSNEEVCDVARKRILLWHKKNGVNLSSAQRSGDSPDPAAQAAAECLSKLALQKGSKDNITVIVVDLKAQRKFKSKT
Consider B1, for which the binding entry in [1], in test [2] and in test [3] was “binds” throughout.

B2: TaABI1-YFP^C (TaABI1:c-myc fusion) (protein, UniProt A5A6P8 1-479)
chain: MEDVAVAALATAPTPVFSPATAGLTLIAAAAAEPIAAVVAGAMEGVPVTFSVPPVRTTTDDGLPAATGGEGGEASAAGSPCSVTSDCSSVASADFEGVGLGFFGAGVEGGAVVFEDSAASAATVEAEARVAAGGRSVFAVECVPLWGFTSICGRRPEMEDAVIAVPRFFGLPLWMLTGNNMVDGLDPISFRLPAHFFGVYDGHGGAQVADYCRDRLHAALVEELSRIEGSVSGANLGAVEFKKQWEKAFVDCFSRVDDEIAGKVTSGGGGNVGTSSVTAMGMVDPVAPETVGSTAVVAVICSSHIIVSNCGDSRAVLCRGKQPVPLSVDHKPNREDEYARIEAEGGKVIQWNGYRVFGVLAMSRSIGDRYLKPWIIPVPEVTIVPRAKDDECLILASDGLWDVLSNEEVCDVARKRILLWHKKNGVNLSSAQRSGDSPDPAAQAAAECLSKLALQKGSKDNITVIVVDLKAQRKFKSKT
For B2, the binding entry is given as “no binding” in test [4]; “binds” in test [5]; “no binding” in [6]; “no binding” in test [7]; “no binding” in [8]; “no binding” in test [9]. Moreover, the binding result in test [10] is on record as “no binding”; in test [11] it was “no binding”; in [12] it was “binds”; in test [13], “binds”; in [14], “no binding”; in test [15], “binds”. The binding result in test [16], in [17], in test [18], in test [19], in test [20] and in test [21] was “no binding” throughout. The binding result in test [22] and in test [23] was “binds” each time.
